# Laboratory results taken from paper PMC4824076, “Integrated microfluidic approach for quantitative high-throughput measurements of transcription factor binding affinities”.
# Target: T1, ATF1 (Homo sapiens) (UniProt P18846)
# T1 sequence (looked up, limits assumed): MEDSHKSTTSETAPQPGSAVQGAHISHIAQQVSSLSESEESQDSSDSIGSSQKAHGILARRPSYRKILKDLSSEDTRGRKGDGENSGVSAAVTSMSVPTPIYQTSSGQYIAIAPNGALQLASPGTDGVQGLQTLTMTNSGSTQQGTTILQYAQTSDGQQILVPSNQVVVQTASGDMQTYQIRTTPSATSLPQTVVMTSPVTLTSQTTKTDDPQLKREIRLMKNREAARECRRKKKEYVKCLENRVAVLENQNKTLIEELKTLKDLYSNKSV
# Experiment: binding assay
# Details: MITOMI-type chip (QPID); rabbit reticulocyte lysate, 1 h; wash 50 mM HEPES; temperature not stated; DNA spotted at 0.0156-2 uM; protein translated in vitro; protein details: N-cMyc, C-His6 (kept); label: Cy5 on the primer strand
row,Sequence,Kd [µM]
1,CGCCCGGGAGCGCGCCTACGTCACCGCGCAGACCTCGGCTCCGGCGGTATGAC (double strand) [24.ATF3_CRE_hs_10],0.143
2,CGCCCGAGGGCGGCGTGTCGTCATCAAGCTGCGCGGGGCTCCGGCGGTATGAC (double strand) [95.ATF1_ATF3_CRE_hs_13],0.192
3,CGCGCTTGCCTGTGCTAACGTCAAAACGCAGCAAAACACTCCGGCGGTATGAC (double strand) [22.ATF3_CRE_hs_8],> 2
4,CGCCGCGCGCGGTTATTACGTCACATCCTGGTTCCGCCCTCCGGCGGTATGAC (double strand) [45.ATF3_CRE_hs_31],0.121
5,CGCGACTTTACGACACTTCGTCAAGTCAGCAGGTCGTACTCCGGCGGTATGAC (double strand) [27.ATF3_CRE_hs_13],1.14
6,CGCAAGCCCGCCTGCTTGCGTCACCGACGGACAGCACCCTCCGGCGGTATGAC (double strand) [68.ATF1_CRE_hs_20],0.102
7,CGCGCGCGCGGCTGAAGACGTCATGGAGGGGGCTGGTGCTCCGGCGGTATGAC (double strand) [103.ATF1_ATF3_CRE_hs_21],0.673
8,CGCGCGGGAGCCGCCGGCCGTCACGTGGGAGGTCACGTCTCCGGCGGTATGAC (double strand) [18.ATF3_CRE_hs_4],> 2
9,CGCGGCGCACGCTTAAGGCGTCACGAGTCTCGAGTTCACTCCGGCGGTATGAC (double strand) [78.ATF1_CRE_hs_30],0.766
10,CGCGGTCAGAGAGAACCACGTCAGCTACTGGCCAGGCTCTCCGGCGGTATGAC (double strand) [120.Unbound_CRE_hs_4],0.447
11,CGCGTCCTTTCGATGTTGCGTCATGCAGTGCGCCGGAGCTCCGGCGGTATGAC (double strand) [86.ATF1_ATF3_CRE_hs_4],0.186
12,CGCTCTCTGCGCGCCTCACGTCAGGGCCAAGAGCCTAGCTCCGGCGGTATGAC (double strand) [60.ATF1_CRE_hs_12],> 2
13,CGCCCCTAAAGCACGGGCTGACGTCATTTCAGCAATGTGCTCTCCGGCGGTATGAC (double strand) [11.Unbound_CRE_2],0.109
14,CGCGTCGCACGCGTTTTGCGTCAGTTGGCAAGGCACTTCTCCGGCGGTATGAC (double strand) [92.ATF1_ATF3_CRE_hs_10],> 2
15,CGCTATCCCAAAACACTTTGACGTCAGGCAGAGCTGGGATGCTCCGGCGGTATGAC (double strand) [12.Unbound_CRE_3],0.205
16,CGCGGATAGGCCCCGGAGCGTCACAGGCACCGCCCTCTCTCCGGCGGTATGAC (double strand) [38.ATF3_CRE_hs_24],0.54
17,CGCACCCGAGGGGGGAAACGTCATTGCGGGTAGCAACCCTCCGGCGGTATGAC (double strand) [65.ATF1_CRE_hs_17],0.429
18,CGCGTTGCAGCGCCCAGGCGTCAGAGGCGGAGGCCCGACTCCGGCGGTATGAC (double strand) [15.ATF3_CRE_hs_1],1.67
19,CGCCTTTTGCCCACGTTACGTCATAGACATGCGCGCGACTCCGGCGGTATGAC (double strand) [59.ATF1_CRE_hs_11],0.0875
20,CGCCGCGCTACCGCATTACGTCAGCAGCCCGCGACGCGCTCCGGCGGTATGAC (double strand) [97.ATF1_ATF3_CRE_hs_15],0.121
21,CGCCGCGAGCCAGAATGTCGTCACTCATCGGCGCCCGACTCCGGCGGTATGAC (double strand) [83.ATF1_ATF3_CRE_hs_1],0.264
22,CGCCTTGCCCTAATATTGCGTCATGAAGGCAGACCTACCTCCGGCGGTATGAC (double strand) [79.ATF1_CRE_hs_31],0.223
23,CGCGGCGCGCCCCGACAACGTCACCCGCAGACCGGCCACTCCGGCGGTATGAC (double strand) [100.ATF1_ATF3_CRE_hs_18],0.15

row,Sequence,Kd [µM]
1,CGCGGCGGGGGCCTGGGCCGTCACGTGGGTGCGCCGCGCTCCGGCGGTATGAC (double strand) [26.ATF3_CRE_hs_12],> 2
2,CGCGGCGCTGGAGGTGCGCGTCACTGTCCGCCGCCGTGCTCCGGCGGTATGAC (double strand) [102.ATF1_ATF3_CRE_hs_20],0.317
3,CGCAGCACAGGCCCCGCCCGTCACGTGCAGCGCCCGAGCTCCGGCGGTATGAC (double strand) [34.ATF3_CRE_hs_20],0.212
4,CGCCCGGCGCAGCGTGTGCGTCACCAGCGGGCGTCGAGCTCCGGCGGTATGAC (double strand) [93.ATF1_ATF3_CRE_hs_11],0.391
5,CGCGTCGCAGAAGAATGGCGTCACAACGACTAAGTAGCCTCCGGCGGTATGAC (double strand) [87.ATF1_ATF3_CRE_hs_5],0.312
6,CGCACCTGGACTCCAGAGCGTCACAGCTGCGCAATGAACTCCGGCGGTATGAC (double strand) [19.ATF3_CRE_hs_5],0.282
7,CGCGGCGCTCCGGAAATGCGTCAGAGAACTGCCTCGAGCTCCGGCGGTATGAC (double strand) [110.ATF1_ATF3_CRE_hs_28],1.17
8,CGCCTCTCGGCTGGGGTTCGTCACTGGGCGCGGGATTTCTCCGGCGGTATGAC (double strand) [16.ATF3_CRE_hs_2],> 2
9,CGCAAGTTGTTCTGGCGGCGTCATTTCAGCAGTCCCTGCTCCGGCGGTATGAC (double strand) [48.ATF3_CRE_hs_34],0.842
10,CGCCGCGAAGAGGGCGCGCGTCATCAGATCAAGTCGACCTCCGGCGGTATGAC (double strand) [104.ATF1_ATF3_CRE_hs_22],0.121
11,CGCGCGCCGGTCCCCGTACGTCACCGCCCCGCGCCGGCCTCCGGCGGTATGAC (double strand) [94.ATF1_ATF3_CRE_hs_12],0.277
12,CGCGACCTTAGCAGTTAGCGTCAACCTCCGCACTCTATCTCCGGCGGTATGAC (double strand) [72.ATF1_CRE_hs_24],0.109
13,CGCTCGGGCCGACAGCGTCGTCACCAGCTTTTATGGGGCTCCGGCGGTATGAC (double strand) [47.ATF3_CRE_hs_33],0.108
14,CGCCCAATCAGAGCTCCTCGTCAGCATATGCAGAATTCCTCCGGCGGTATGAC (double strand) [62.ATF1_CRE_hs_14],0.265
15,CGCGGGCACTTCCGATTTCGTCATCAGCACGCGCACCCCTCCGGCGGTATGAC (double strand) [113.ATF1_ATF3_CRE_hs_31],0.22
16,CGCCGCCCCCTCTCCTGGCGTCAGCCTCTTCCGATTGGCTCCGGCGGTATGAC (double strand) [115.ATF1_ATF3_CRE_hs_33],0.526
17,CGCGGCGGTTGCGTCTTACGTCATCGAACTGCGGCCATCTCCGGCGGTATGAC (double strand) [74.ATF1_CRE_hs_26],0.106
18,CGCCGGTGCTTCCGTGTGCGTCATCAGGAGGCGACCGTCTCCGGCGGTATGAC (double strand) [99.ATF1_ATF3_CRE_hs_17],0.362
19,CGCCGCGCAACCGCGTTGCGTCACTTCTGCCGCCCCTGCTCCGGCGGTATGAC (double strand) [70.ATF1_CRE_hs_22],0.317
20,CGCGGGTAGGTGGTGCCCCGTCACGTGCCGGAATCACCCTCCGGCGGTATGAC (double strand) [17.ATF3_CRE_hs_3],0.149
21,CGCAGAGACAGCACTGTGCGTCATGTACCAGCGCCGGACTCCGGCGGTATGAC (double strand) [108.ATF1_ATF3_CRE_hs_26],0.188
22,CGCGGCTGCAACATTAACCGTCATCAGCGCGCCTCTTCCTCCGGCGGTATGAC (double strand) [114.ATF1_ATF3_CRE_hs_32],0.588
23,CGCGCCCGGCGCGGCCCCTGACGTCACCCCTCTGCGCCACGCTCCGGCGGTATGAC (double strand) [2.ATF3_CRE_2],0.0628

# Tags and fusion partners may be left off the protein sequences shown. The exact form of at least one protein or probe is not confirmed.
